Data published in the odorant receptor screen of Mainland et al. (2015).
Where “and” joins values, the source holds several entries; their conditions need not be identical. Equal values may be shown once. The list shows a part of the results. Single wells; the ratio to wells without odorant was worked out here, and repeats agree poorly.

Each compound was assayed on OR6Q1 clone 1231 (assay: odorant receptor activation (CRE luciferase / Renilla) (fold of no-odor wells); higher = more activation). Conditions: 100 µM.

| Compound | odorant receptor activation |
| --- | --- |
| CC/C=C\CCO [cis-3-hexen-1-ol] | 1.17 |
| CCCCCCCCCCC=O [undecanal] | 1.03 |
| C=C(C)C1CC=CCC1 (stereo not given) [r-limonene] | 1.07 |

What follows are compounds tested on OR6S1 T42I/V156I/R237H clone 1271 in the same assay as above. Conditions: 100 µM.

| Compound | odorant receptor activation |
| --- | --- |
| CCCCCC(C)=O [2-heptanone] | 1.01 |
| COc1cc(C)ccc1O [2-methoxy-4-methylphenol] | 0.677 |
| O=C1CCCCCCCCCCCCCCO1 [pentadecalactone] | 0.645 |
| CC(C)(C)c1ccc(CCC=O)cc1 [bourgeonal] | 0.841 |
| CCCCCCOC(=O)CCC [hexyl butyrate] | 1.07 and 0.85 |
| CC12C=CCC1C1CCC3=CC(=O)CCC3(C)C1CC2 (stereo not given) [androstadienone] | 1.15 and 1.01 |
| CC12CCC(CC1)C(C)(C)O2 [cineole] | 0.811 |
| CC1=NC(C)SC1C (stereo not given) | 1.37 |
| CCCC(=O)O [butyric acid] | 0.979 |
| COc1ccccc1O [guaiacol] | 0.89 and 1.08 |
| O=C1CCCCC1 [Cyclohexanone] | 0.301 |
| CCCCCCCOC(C)=O [heptyl acetate] | 1.06 and 1.09 |
| CC(=O)c1ccccc1 [acetophenone] | 2.31 |
| CCCCCOC(C)=O [n-amyl acetate] | 0.532 |
| CCCCCCCCC=O [nonyl aldehyde] | 1.08 |
| CC(C)CC(=O)O [isovaleric acid] | 0.766 |
| CC(C)C=O [isobutyraldehyde] | 1.22 and 0.965 |
| CCCCCCCC=O [octyl aldehyde] | 1 |
| CC1=CCC(C(C)(C)O)CC1 (stereo not given) [terpineol] | 0.963 |
| CC12C=CCC1C1CCC3CC(=O)CCC3(C)C1CC2 (stereo not given) [androstenone] | 1.28 |
| CC=Cc1ccc(O)c(OC)c1 [isoeugenol] | 0.967 and 1.46 |
| CC/C=C\CCO [cis-3-hexen-1-ol] | 0.957 |
| CCCCCCCCCCC=O [undecanal] | 1.01 |
| COC(=O)c1ccccc1 [methyl benzoate] | 0.64 |
| C=C(C)C1CC=CCC1 (stereo not given) [r-limonene] | 0.942 and 0.378 |

The compounds below were run on OR6T1 clone 1188 in the same assay as above. Conditions: 100 µM.

| Compound | odorant receptor activation |
| --- | --- |
| CCCCCC(C)=O [2-heptanone] | 1.15 |
| CCCCCCC=O [heptaldehyde] | 0.555 and 1.09 |
| COc1cc(C)ccc1O [2-methoxy-4-methylphenol] | 1.08 |
| O=C1CCCCCCCCCCCCCCO1 [pentadecalactone] | 0.651 |
| CC(C)(C)c1ccc(CCC=O)cc1 [bourgeonal] | 0.801 |
| CCCCCCOC(=O)CCC [hexyl butyrate] | 0.966 |
| CC12C=CCC1C1CCC3=CC(=O)CCC3(C)C1CC2 (stereo not given) [androstadienone] | 0.936 |
| CC12CCC(CC1)C(C)(C)O2 [cineole] | 1.01 |
| CC1=NC(C)SC1C (stereo not given) | 1.2 |
| CCCC(=O)O [butyric acid] | 0.881 |
| COc1ccccc1O [guaiacol] | 0.839 |
| O=C1CCCCC1 [Cyclohexanone] | 1.02 |
| CCCCCCCOC(C)=O [heptyl acetate] | 0.804 |
| CC(=O)c1ccccc1 [acetophenone] | 1.21 |
| CCCCCOC(C)=O [n-amyl acetate] | 0.787 |
| CCCCCCCCC=O [nonyl aldehyde] | 0.981 |
| CC1COCc2cc3c(cc21)C(C)(C)C(C)C3(C)C (stereo not given) [galaxolide] | 0.64 |
| CC(C)CC(=O)O [isovaleric acid] | 0.974 |
| CC(C)C=O [isobutyraldehyde] | 0.898 |
| CCCCCCCC=O [octyl aldehyde] | 1.02 |
| CC1=CCC(C(C)(C)O)CC1 (stereo not given) [terpineol] | 1.16 |
| CC12C=CCC1C1CCC3CC(=O)CCC3(C)C1CC2 (stereo not given) [androstenone] | 4.05 |
| CC=Cc1ccc(O)c(OC)c1 [isoeugenol] | 0.981 |
| CC/C=C\CCO [cis-3-hexen-1-ol] | 1 |
| CCCCCCCCCCC=O [undecanal] | 0.9 |
| COC(=O)c1ccccc1 [methyl benzoate] | 1.09 |
| C=C(C)C1CC=CCC1 (stereo not given) [r-limonene] | 0.98 and 0.877 |

Each compound was assayed on OR6V1 clone 1730 in the same assay as above. Conditions: 100 µM.

| Compound | odorant receptor activation |
| --- | --- |
| CCCCCCC=O [heptaldehyde] | 0.858 |
| COc1cc(C)ccc1O [2-methoxy-4-methylphenol] | 0.789 |
| O=C1CCCCCCCCCCCCCCO1 [pentadecalactone] | 0.758 |
| CCCCCCOC(=O)CCC [hexyl butyrate] | 0.801 |
| CC12CCC(CC1)C(C)(C)O2 [cineole] | 0.965 |
| CCCC(=O)O [butyric acid] | 1.01 |
| COc1ccccc1O [guaiacol] | 0.772 |
| CCCCCCCOC(C)=O [heptyl acetate] | 0.811 |
| CCCCCOC(C)=O [n-amyl acetate] | 1 |
| CCCCCCCCC=O [nonyl aldehyde] | 0.834 |
| CC(C)CC(=O)O [isovaleric acid] | 1.07 |
| CC(C)C=O [isobutyraldehyde] | 0.812 |
| CCCCCCCC=O [octyl aldehyde] | 0.915 |
| CC1=CCC(C(C)(C)O)CC1 (stereo not given) [terpineol] | 0.878 |
| CC(C)(O)CCCC1=CCC(C=O)CC1 (stereo not given) [lyral] | 1.15 |
| CC=Cc1ccc(O)c(OC)c1 [isoeugenol] | 4.9 |
| CC/C=C\CCO [cis-3-hexen-1-ol] | 0.932 |
| C=C(C)C1CCC2=CC(=O)CC(C)C2(C)C1 (stereo not given) [amyl laurate] | 2.18 |
| CCCCCCCCCCC=O [undecanal] | 0.895 |
| C=C(C)C1CC=CCC1 (stereo not given) [r-limonene] | 1.03 |
